Test results from PMC10813690.
Results are given in words; binding and its absence hold for the method and conditions named.

Amino acid sequences for entries named in this document (tags omitted). Residues count along the entry.
UniProt P21860, residues 20-643: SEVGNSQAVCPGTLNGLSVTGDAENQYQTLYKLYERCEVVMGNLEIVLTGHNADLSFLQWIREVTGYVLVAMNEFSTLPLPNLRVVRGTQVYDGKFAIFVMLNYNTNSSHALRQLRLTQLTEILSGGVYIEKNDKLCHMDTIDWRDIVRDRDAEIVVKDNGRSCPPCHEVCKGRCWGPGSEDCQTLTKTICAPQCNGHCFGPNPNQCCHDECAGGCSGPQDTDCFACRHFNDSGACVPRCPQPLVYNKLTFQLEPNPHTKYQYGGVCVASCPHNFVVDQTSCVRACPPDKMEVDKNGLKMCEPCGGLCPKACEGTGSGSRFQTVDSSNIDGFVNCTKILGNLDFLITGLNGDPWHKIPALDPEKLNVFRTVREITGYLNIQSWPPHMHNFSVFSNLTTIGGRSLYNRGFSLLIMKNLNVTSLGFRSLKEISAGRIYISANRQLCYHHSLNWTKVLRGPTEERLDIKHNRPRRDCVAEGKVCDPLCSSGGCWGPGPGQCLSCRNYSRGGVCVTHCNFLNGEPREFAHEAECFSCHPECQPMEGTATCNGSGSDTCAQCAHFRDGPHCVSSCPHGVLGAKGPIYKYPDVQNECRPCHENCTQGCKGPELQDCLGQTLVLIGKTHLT

Tests used:
Assay in all cases: peptide or protein array; GDF-15-related receptor microarray: five recombinant human receptors printed in duplicate; biotinylated GDF-15 at 0.1, 1.0 and 10 μg/mL incubated 2 h at room temperature; detected with Cy3-streptavidin; biotin as negative control; both purified
[1] = target: human epidermal growth factor receptor 3, recombinant human (human) (UniProt P21860)
[2] = target: epidermal growth factor receptor, recombinant human (human) (UniProt P00533)
[3] = target: T1, transforming growth factor-beta receptor I, recombinant human (human) (UniProt P36897)
T1 sequence: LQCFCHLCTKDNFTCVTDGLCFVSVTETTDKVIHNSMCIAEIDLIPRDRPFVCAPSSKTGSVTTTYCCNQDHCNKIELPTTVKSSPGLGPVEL

binding [1]: no binding (tested: 10 μg/mL)
binding [2]: no binding (tested: 10 μg/mL)
binding [3]: no binding (tested: 10 μg/mL)
B1: Growth differentiation factor-15, biotinylated (ligand, UniProt Q99988 195-308)
chain: ARARNGDHCPLGPGRCCRLHTVRASLEDLGWADWVLSPREVQVTMCIGACPSQFRAANMHAQIKTSLHRLKPDTVPAPCCVPASYNPMVLIQKTDTGVSLQTYDDLLAKDCHCI
modifications: biotin (sites not given)
